This is an account of results in paper doi:10.1101/2021.12.22.473884.

By UniProt entry, the sequences of proteins in these tests, tags left out. Where a name states a change or a piece, a line headed by the entry shows the natural chain unless it says otherwise.
UniProt Q9NQG6, whole entry: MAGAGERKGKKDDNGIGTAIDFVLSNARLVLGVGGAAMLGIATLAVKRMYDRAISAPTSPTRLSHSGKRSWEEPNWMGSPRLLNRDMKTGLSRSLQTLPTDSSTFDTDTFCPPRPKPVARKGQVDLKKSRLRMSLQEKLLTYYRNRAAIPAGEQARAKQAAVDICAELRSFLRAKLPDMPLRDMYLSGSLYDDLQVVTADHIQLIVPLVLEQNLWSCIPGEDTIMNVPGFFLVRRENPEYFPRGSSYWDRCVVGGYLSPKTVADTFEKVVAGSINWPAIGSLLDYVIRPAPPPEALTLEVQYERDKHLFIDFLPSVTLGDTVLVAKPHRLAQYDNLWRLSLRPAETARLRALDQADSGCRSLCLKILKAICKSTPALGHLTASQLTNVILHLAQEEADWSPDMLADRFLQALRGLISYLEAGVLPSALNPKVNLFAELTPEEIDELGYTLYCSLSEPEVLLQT

The target of assay [1] is T1, GST-PI31 (UniProt Q92530).
T1 sequence: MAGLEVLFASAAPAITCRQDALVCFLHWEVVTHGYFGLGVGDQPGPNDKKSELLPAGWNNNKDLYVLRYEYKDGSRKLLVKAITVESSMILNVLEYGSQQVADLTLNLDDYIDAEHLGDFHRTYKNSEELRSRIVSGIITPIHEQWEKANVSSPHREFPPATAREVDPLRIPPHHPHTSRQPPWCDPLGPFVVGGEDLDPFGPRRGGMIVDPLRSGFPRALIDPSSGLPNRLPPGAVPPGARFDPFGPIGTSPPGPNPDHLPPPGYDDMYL
The experiment in a line: pull-down.

The target in assay [2] is T2, Fbxo7 R498X (human) (UniProt Q9Y3I1).
T2 sequence: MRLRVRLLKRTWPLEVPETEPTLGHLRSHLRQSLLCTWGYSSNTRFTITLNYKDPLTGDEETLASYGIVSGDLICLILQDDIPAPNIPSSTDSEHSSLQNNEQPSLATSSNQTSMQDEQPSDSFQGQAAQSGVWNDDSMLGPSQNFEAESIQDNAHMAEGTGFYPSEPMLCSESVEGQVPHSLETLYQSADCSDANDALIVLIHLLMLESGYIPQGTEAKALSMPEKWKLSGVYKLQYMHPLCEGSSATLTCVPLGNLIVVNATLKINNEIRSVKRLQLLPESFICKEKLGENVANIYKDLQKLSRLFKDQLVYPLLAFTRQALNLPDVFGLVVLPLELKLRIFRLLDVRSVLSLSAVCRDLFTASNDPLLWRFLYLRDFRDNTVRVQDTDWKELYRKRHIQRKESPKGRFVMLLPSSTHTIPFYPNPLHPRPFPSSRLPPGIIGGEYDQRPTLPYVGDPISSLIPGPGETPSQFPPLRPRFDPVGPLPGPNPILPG
The experiment in a line: co-IP.

Assay [3] deals with T3, FLAG-Fbxo7 (aa169-398) (human) (UniProt Q9Y3I1).
T3 sequence: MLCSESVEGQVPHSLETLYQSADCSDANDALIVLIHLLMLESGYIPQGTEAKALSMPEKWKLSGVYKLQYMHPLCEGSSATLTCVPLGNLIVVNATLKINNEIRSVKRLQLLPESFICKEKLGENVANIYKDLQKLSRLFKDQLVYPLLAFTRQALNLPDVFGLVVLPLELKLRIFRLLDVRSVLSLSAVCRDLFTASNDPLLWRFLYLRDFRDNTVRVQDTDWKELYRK
The experiment in a line: co-IP.

Assay [4] deals with T4, Flag-Fbxo7 L250P (human) (UniProt Q9Y3I1).
T4 sequence: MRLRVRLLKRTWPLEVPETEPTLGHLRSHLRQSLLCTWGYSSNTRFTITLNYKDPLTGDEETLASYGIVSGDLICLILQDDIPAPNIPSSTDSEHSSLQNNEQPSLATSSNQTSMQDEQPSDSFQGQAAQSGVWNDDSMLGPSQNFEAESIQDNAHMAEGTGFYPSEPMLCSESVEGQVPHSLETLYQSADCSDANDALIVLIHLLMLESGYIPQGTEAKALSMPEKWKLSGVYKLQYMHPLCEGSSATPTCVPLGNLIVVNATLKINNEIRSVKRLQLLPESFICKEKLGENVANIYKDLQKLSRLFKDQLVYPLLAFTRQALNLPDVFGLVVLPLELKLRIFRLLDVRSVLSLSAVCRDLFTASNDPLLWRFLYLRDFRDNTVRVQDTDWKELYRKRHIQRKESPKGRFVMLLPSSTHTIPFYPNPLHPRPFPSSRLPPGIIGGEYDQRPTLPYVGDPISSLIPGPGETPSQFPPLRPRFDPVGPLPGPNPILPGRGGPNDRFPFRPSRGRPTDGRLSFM
Description: co-IP.

The target in assay [5] is T5, Flag-Fbxo7 WT (human) (UniProt Q9Y3I1).
T5 sequence: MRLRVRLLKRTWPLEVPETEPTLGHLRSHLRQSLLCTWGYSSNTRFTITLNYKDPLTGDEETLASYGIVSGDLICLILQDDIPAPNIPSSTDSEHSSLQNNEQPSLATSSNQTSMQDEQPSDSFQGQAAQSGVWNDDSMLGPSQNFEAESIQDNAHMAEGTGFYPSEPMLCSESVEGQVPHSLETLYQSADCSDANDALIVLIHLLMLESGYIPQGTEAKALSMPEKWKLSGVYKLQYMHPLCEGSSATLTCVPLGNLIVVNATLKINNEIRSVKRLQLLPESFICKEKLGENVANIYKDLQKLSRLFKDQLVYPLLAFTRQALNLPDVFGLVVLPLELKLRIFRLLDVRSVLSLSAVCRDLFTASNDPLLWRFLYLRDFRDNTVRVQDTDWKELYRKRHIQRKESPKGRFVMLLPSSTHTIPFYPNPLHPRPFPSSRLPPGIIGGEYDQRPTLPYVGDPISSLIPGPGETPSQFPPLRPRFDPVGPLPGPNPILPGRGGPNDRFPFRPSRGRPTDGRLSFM
Description: co-IP.

The target of assay [6] is T6, Fbxo7 T22M (human) (UniProt Q9Y3I1).
T6 sequence: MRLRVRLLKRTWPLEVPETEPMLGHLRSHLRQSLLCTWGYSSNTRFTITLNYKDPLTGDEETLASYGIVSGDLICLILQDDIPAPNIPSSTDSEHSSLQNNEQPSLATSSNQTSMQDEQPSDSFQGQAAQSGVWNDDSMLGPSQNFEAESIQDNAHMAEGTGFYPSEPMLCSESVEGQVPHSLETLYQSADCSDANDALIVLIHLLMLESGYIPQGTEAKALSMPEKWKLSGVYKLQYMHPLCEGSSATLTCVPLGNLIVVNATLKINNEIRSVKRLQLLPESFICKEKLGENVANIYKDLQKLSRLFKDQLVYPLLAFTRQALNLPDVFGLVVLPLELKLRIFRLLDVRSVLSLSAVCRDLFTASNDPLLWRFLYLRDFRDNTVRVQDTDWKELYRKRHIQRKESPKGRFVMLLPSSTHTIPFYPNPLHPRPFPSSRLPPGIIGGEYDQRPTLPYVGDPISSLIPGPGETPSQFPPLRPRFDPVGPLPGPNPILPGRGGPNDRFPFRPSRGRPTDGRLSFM
Description: co-IP.

Assay [7] addresses T7, Fbxo7 R378G (human) (UniProt Q9Y3I1).
T7 sequence: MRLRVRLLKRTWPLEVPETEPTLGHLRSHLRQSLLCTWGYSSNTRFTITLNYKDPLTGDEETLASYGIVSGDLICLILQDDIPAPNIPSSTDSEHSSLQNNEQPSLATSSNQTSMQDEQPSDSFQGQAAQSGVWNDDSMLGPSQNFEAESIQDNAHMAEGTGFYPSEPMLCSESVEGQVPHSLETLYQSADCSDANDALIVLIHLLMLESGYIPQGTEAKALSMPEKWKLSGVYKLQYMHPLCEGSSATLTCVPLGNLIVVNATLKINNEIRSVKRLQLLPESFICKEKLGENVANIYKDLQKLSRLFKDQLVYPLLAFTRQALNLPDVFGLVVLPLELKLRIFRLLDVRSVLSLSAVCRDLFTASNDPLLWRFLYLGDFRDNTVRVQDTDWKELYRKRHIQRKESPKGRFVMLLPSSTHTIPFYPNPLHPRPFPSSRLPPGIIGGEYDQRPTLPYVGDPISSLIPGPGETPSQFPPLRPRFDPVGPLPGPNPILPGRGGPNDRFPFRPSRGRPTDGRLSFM
The experiment in a line: co-IP.

The target of assay [8] is T1, GST-PI31. The experiment in a line: pull-down. This is another data set of the same source.
The target of assay [9] is T4, Flag-Fbxo7 L250P (human). The experiment in a line: co-IP. The source holds these as a separate data set.
Assay [10] deals with T5, Flag-Fbxo7 WT (human). The experiment in a line: co-IP. This is another data set of the same source.

Read-outs that look alike come from different tables or passages of the source. Results are given in words; binding and its absence hold for the method and conditions named. Binding seen in cells or lysates may run through a third protein. Some binding calls cover weakened binding; strength is not graded here. For part of these data: Where a sequence is shown, tags or fusion partners need not be part of it.

Take “MiD51 made using reticulocyte lysates (from UniProt Q9NQG6 1-463)”: in [1], the binding result is on record as “binds”.

As for MiD51-Myc (from UniProt Q9NQG6 1-463), the binding entry in assay [2], in [3], in [4], in [5], in assay [6] and in [7] was “binds” throughout.

B1: MiD49 made using reticulocyte lysates (protein, UniProt Q96C03 1-454)
chain: MAEFSQKRGKRRSDEGLGSMVDFLLANARLVLGVGGAAVLGIATLAVKRFIDRATSPRDEDDTKADSWKELSLLKATPHLQPRPPPAALSQPVLPLAPSSSAPEGPAETDPEVTPQLSSPAPLCLTLQERLLAFERDRVTIPAAQVALAKQLAGDIALELQAYFRSKFPELPFGAFVPGGPLYDGLQAGAADHVRLLVPLVLEPGLWSLVPGVDTVARDPRCWAVRRTQLEFCPRGSSPWDRFLVGGYLSSRVLLELLRKALAASVNWPAIGSLLGCLIRPSMASEELLLEVQHERLELTVAVLVAVPGVDADDRLLLAWPLEGLAGNLWLQDLYPVEAARLRALDDHDAGTRRRLLLLLCAVCRGCSALGQLGRGHLTQVVLRLGEDNVDWTEEALGERFLQALELLIGSLEQASLPCHFNPSVNLFSSLREEEIDDIGYALYSGLQEPEGLL
In the case of B1, in assay [8], the binding entry is recorded as “binds”.

B2: Flag-Fbxo7 WT (protein, UniProt Q9Y3I1-1 1-522)
chain: MRLRVRLLKRTWPLEVPETEPTLGHLRSHLRQSLLCTWGYSSNTRFTITLNYKDPLTGDEETLASYGIVSGDLICLILQDDIPAPNIPSSTDSEHSSLQNNEQPSLATSSNQTSMQDEQPSDSFQGQAAQSGVWNDDSMLGPSQNFEAESIQDNAHMAEGTGFYPSEPMLCSESVEGQVPHSLETLYQSADCSDANDALIVLIHLLMLESGYIPQGTEAKALSMPEKWKLSGVYKLQYMHPLCEGSSATLTCVPLGNLIVVNATLKINNEIRSVKRLQLLPESFICKEKLGENVANIYKDLQKLSRLFKDQLVYPLLAFTRQALNLPDVFGLVVLPLELKLRIFRLLDVRSVLSLSAVCRDLFTASNDPLLWRFLYLRDFRDNTVRVQDTDWKELYRKRHIQRKESPKGRFVMLLPSSTHTIPFYPNPLHPRPFPSSRLPPGIIGGEYDQRPTLPYVGDPISSLIPGPGETPSQFPPLRPRFDPVGPLPGPNPILPGRGGPNDRFPFRPSRGRPTDGRLSFM
Consider B2, for which the binding result in assay [9] and in assay [10] was “binds” throughout.

B3: Flag-Fbxo7 L250P (protein, UniProt Q9Y3I1-1 1-522)
chain: MRLRVRLLKRTWPLEVPETEPTLGHLRSHLRQSLLCTWGYSSNTRFTITLNYKDPLTGDEETLASYGIVSGDLICLILQDDIPAPNIPSSTDSEHSSLQNNEQPSLATSSNQTSMQDEQPSDSFQGQAAQSGVWNDDSMLGPSQNFEAESIQDNAHMAEGTGFYPSEPMLCSESVEGQVPHSLETLYQSADCSDANDALIVLIHLLMLESGYIPQGTEAKALSMPEKWKLSGVYKLQYMHPLCEGSSATPTCVPLGNLIVVNATLKINNEIRSVKRLQLLPESFICKEKLGENVANIYKDLQKLSRLFKDQLVYPLLAFTRQALNLPDVFGLVVLPLELKLRIFRLLDVRSVLSLSAVCRDLFTASNDPLLWRFLYLRDFRDNTVRVQDTDWKELYRKRHIQRKESPKGRFVMLLPSSTHTIPFYPNPLHPRPFPSSRLPPGIIGGEYDQRPTLPYVGDPISSLIPGPGETPSQFPPLRPRFDPVGPLPGPNPILPGRGGPNDRFPFRPSRGRPTDGRLSFM
Take B3: the binding result in assay [9] and in assay [10] was “binds” throughout.
